# The list shows a part of the results.
# B1: MIC2 (Toxoplasma gondii), S8F9G8 (protein)
# chain: MRLQREAVFGLMFACGMWMWPSEVAGGGWSIVDALRKRYDTSRGGDANGVDTSGVEDVIQSESAIGAAEGCTNQLDICFLIDSSGSIGIQNFRLVKQFLHTFLMVLPIGPEEVNNAVVTYSTDVHLQWDLQSPNAVDKQLAAHAVLDMPYKKGSTNTSDGLKACKQILFTGSRPGREHVPKLVIGMTDGESDSDFRTVRAAKEIRELGGIVTVLAVGHYVKHSECRSMCGCSGTSDDDSPCPLYLRADWGQLATAIKPMLKEVCKTLPQDAICSDWSAWSPCSVSCGDGSQIRTRTEVSAPQPGTPTCPDCPAPMGRTCVEQGGLEEIRECSAGVCAVDAGCGVWGEWSAWSASCGNATRKRERTRYNDPPPQGAGRRCENQDPPVLQEQTEEATLAPCITIPPTPPEWAAWSDCTVTCGGGNRHRVRNALPPGLGSQNGESDESLVSKLWPGTDLRQEEACNTSPCPINATCGQFEEWSTCSVSCGGGLKTRSRNPWNEDQQHGGLSCEQQHPGGRTETITCNPQACPVDERPGEWAEWGECSVTCGDGVRERRRGKSLVEAKFGGRTIDQQNEALPEDLKIKNVEYEPCSYPACGASCTYVWSDWNKCVCPMGYQARHAAVKFDYRNKPCDLPTFETKACSCGETNPVPSEGTTPGAPGATGPEQPNQRPLPEGSDENETPTNEEGEQSKKESGSGIAGAIAGGVIGGLILLGAAGGASYHYYLSSSVGSPSAEIEYEADDGATKVVMEEEKETLVPVDDDSDMWME
# Legend:
# Assay in all cases: glycan array binding signal (z-score within array); higher = stronger binding
# Conditions in all cases: glycan notation: IUPAC condensed, linker removed
# Neu5Ac(a2-8)Neu5Ac = biological target: Neu5Ac(a2-8)Neu5Ac
# Procedure, shortened: (§1)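 The binding signal is a Z-score computed within each array and averaged over linkers. Arrays of the same protein sequence at different concentrations or buffers were also averaged together. Data originate from 3228 arrays in the Consortium for Functional Glycomics database, kept only where the protein sequence was available.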
# [1] = biological target: Neu5Ac(a2-8)Neu5Ac(a2-3)Gal(b1-4)Glc
# Procedure, shortened: as §1
# [2] = biological target: Neu5Ac(a2-8)Neu5Ac(a2-3)[GalNAc(b1-4)]Gal(b1-4)Glc
# Procedure, shortened: as §1
# [3] = biological target: Neu5Ac(a2-8)Neu5Ac(a2-8)Neu5Ac
# Procedure, shortened: as §1
# [4] = biological target: Neu5Ac(a2-8)Neu5Ac(a2-8)Neu5Ac(a2-3)Gal(b1-4)Glc
# Procedure, shortened: as §1
# [5] = biological target: Neu5Ac(a2-8)Neu5Ac(a2-8)Neu5Ac(a2-3)[GalNAc(b1-4)]Gal(b1-4)Glc
# Procedure, shortened: as §1
# [6] = biological target: Neu5Ac(a2-8)Neu5Ac(a2-8)Neu5Ac(a2-8)Neu5Ac(a2-3)[GalNAc(b1-4)]Gal(b1-4)Glc
# Procedure, shortened: as §1
# [7] = biological target: Neu5Ac(b2-6)Gal(b1-4)GlcNAc
# Procedure, shortened: as §1
# Neu5Ac(b2-6)GalNAc = biological target: Neu5Ac(b2-6)GalNAc
# Procedure, shortened: as §1
# [8] = biological target: Neu5Ac9Ac(a2-3)Gal(b1-3)GlcNAc
# Procedure, shortened: as §1
# [9] = biological target: Neu5Ac9Ac(a2-3)Gal(b1-4)GlcNAc
# Procedure, shortened: as §1
# [10] = biological target: Neu5Ac9Ac(a2-6)Gal(b1-4)GlcNAc
# Procedure, shortened: as §1
# [11] = biological target: Neu5Gc(a2-3)Gal(b1-3)GlcNAc
# Procedure, shortened: as §1
# [12] = biological target: Neu5Gc(a2-3)Gal(b1-3)[Fuc(a1-4)]GlcNAc
# Procedure, shortened: as §1
# Neu5Gc(a2-3)Gal(b1-4)Glc = biological target: Neu5Gc(a2-3)Gal(b1-4)Glc
# Procedure, shortened: as §1
# [13] = biological target: Neu5Gc(a2-3)Gal(b1-4)GlcNAc
# Procedure, shortened: as §1
# [14] = biological target: Neu5Gc(a2-3)Gal(b1-4)[Fuc(a1-3)]GlcNAc
# Procedure, shortened: as §1
# [15] = biological target: Neu5Gc(a2-6)Gal(b1-4)GlcNAc
# Procedure, shortened: as §1
# Neu5Gc(a2-6)GalNAc = biological target: Neu5Gc(a2-6)GalNAc
# Procedure, shortened: as §1
# [16] = biological target: Neu5Gc(b2-6)Gal(b1-4)GlcNAc
# Procedure, shortened: as §1
binder,measurement,setting,value
B1,glycan array binding signal (z-score),Neu5Ac(a2-8)Neu5Ac,-0.5
same,glycan array binding signal (z-score),[1],-0.713
same,glycan array binding signal (z-score),[2],0.207
same,glycan array binding signal (z-score),[3],-0.293
same,glycan array binding signal (z-score),[4],-0.598
same,glycan array binding signal (z-score),[5],0.198
same,glycan array binding signal (z-score),[6],-0.721
same,glycan array binding signal (z-score),[7],-0.796
same,glycan array binding signal (z-score),Neu5Ac(b2-6)GalNAc,-0.725
same,glycan array binding signal (z-score),[8],-0.261
same,glycan array binding signal (z-score),[9],0.306
same,glycan array binding signal (z-score),[10],-0.087
same,glycan array binding signal (z-score),[11],0.1
same,glycan array binding signal (z-score),[12],-0.354
same,glycan array binding signal (z-score),Neu5Gc(a2-3)Gal(b1-4)Glc,0.763
same,glycan array binding signal (z-score),[13],0.102
same,glycan array binding signal (z-score),[14],0.754
same,glycan array binding signal (z-score),[15],0.237
same,glycan array binding signal (z-score),Neu5Gc(a2-6)GalNAc,0.222
same,glycan array binding signal (z-score),[16],-0.855

# A different layout for some results above:
binder	measurement	setting	value
B1	glycan array binding signal (z-score)	[14]	0.754
same	glycan array binding signal (z-score)	[15]	0.237

# Source: the supplement of paper PMC8728848
